{"source": "patent US10040872B2", "about": "“Alkylated cyclodextrin compositions and processes for preparing and using the same” (CyDex Pharmaceuticals, Inc., priority 2012, dated 2018)", "origin": "cited, not measured here", "conditions": "at saturation"}
{"smiles": "OC[C@H]1O[C@@H]2O[C@H]3[C@H](O)[C@@H](O)[C@@H](O[C@H]4[C@H](O)[C@@H](O)[C@@H](O[C@H]5[C@H](O)[C@@H](O)[C@@H](O[C@H]6[C@H](O)[C@@H](O)[C@@H](O[C@H]7[C@H](O)[C@@H](O)[C@@H](O[C@H]1[C@H](O)[C@H]2O)O[C@@H]7CO)O[C@@H]6CO)O[C@@H]5CO)O[C@@H]4CO)O[C@@H]3CO", "note": "[α-CD, α-cyclodextrin]", "values": [{"measurement": "solubility in water", "result": "about 145 g/L"}]}
